For experiment [1], the target named is T1, GFP-Me31B (Drosophila melanogaster) (UniProt P23128).
T1 sequence: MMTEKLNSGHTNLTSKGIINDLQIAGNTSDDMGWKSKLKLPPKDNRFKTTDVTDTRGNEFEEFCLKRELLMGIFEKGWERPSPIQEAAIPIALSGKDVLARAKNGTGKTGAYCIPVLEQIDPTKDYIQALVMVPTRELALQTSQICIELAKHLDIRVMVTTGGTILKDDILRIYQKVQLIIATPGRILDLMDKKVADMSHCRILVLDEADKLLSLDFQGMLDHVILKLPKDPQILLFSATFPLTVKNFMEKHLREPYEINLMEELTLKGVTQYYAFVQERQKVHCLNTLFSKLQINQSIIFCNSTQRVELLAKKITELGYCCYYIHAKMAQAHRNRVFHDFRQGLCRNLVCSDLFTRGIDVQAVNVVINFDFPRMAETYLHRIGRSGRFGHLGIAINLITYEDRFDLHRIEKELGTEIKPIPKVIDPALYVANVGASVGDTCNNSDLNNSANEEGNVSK
Briefly: co-IP; tagged proteins ectopically expressed in S2 cells; immunoprecipitation of the GFP-tagged protein, western blot. For orientation: In western blotting, separated proteins are transferred to a membrane and probed.

Sequences of proteins named here, by UniProt entry; tags and fusion partners are left off. A change or cut given only in a name is not applied to a line headed by its entry. A line that says so, or that is headed by a name, gives the form on record, which may keep a tag or linker.
UniProt A1ZAW0: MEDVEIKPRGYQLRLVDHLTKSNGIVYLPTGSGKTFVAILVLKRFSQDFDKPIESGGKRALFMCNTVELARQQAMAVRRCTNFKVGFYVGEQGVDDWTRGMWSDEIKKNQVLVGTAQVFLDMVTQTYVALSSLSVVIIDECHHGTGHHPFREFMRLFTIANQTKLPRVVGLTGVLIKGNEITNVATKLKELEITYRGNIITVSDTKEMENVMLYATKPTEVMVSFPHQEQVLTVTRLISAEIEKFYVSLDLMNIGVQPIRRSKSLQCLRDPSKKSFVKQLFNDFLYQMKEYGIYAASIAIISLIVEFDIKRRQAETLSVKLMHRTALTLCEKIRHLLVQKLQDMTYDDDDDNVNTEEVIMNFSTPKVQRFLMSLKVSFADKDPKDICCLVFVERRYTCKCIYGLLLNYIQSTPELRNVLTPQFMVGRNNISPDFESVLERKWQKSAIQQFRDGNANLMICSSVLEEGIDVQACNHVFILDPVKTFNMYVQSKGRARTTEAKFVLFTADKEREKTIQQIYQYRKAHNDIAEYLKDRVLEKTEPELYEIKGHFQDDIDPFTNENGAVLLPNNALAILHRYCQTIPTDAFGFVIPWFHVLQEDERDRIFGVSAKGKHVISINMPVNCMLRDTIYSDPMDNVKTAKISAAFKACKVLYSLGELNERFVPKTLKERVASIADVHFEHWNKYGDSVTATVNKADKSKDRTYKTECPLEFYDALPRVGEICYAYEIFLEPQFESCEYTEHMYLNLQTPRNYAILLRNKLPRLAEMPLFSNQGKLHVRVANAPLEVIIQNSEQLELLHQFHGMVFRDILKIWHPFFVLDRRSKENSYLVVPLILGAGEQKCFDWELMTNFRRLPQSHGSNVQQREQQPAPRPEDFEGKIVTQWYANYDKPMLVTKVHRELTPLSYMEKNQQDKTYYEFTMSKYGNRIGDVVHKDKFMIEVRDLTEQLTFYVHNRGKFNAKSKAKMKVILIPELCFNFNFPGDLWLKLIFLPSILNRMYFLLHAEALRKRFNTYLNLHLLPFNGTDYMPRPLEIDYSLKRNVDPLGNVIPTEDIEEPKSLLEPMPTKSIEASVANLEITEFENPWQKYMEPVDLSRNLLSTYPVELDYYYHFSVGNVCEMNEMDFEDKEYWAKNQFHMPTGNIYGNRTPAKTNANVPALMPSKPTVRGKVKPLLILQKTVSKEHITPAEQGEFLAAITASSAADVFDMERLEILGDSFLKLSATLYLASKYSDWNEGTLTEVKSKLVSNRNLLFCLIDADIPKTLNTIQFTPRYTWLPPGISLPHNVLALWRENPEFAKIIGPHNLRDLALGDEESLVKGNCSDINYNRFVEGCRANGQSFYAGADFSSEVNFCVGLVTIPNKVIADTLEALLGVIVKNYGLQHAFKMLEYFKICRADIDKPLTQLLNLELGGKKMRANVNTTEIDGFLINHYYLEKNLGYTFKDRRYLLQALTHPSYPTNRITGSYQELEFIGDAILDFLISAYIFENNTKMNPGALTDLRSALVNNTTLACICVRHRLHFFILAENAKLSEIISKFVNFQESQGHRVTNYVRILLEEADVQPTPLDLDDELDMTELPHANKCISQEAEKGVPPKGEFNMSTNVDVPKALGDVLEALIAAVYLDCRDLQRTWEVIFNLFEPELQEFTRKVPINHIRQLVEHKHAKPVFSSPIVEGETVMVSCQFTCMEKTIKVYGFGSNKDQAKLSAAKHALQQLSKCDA
GFP::Dicer-2^Hel1 (A1ZAW0, form named): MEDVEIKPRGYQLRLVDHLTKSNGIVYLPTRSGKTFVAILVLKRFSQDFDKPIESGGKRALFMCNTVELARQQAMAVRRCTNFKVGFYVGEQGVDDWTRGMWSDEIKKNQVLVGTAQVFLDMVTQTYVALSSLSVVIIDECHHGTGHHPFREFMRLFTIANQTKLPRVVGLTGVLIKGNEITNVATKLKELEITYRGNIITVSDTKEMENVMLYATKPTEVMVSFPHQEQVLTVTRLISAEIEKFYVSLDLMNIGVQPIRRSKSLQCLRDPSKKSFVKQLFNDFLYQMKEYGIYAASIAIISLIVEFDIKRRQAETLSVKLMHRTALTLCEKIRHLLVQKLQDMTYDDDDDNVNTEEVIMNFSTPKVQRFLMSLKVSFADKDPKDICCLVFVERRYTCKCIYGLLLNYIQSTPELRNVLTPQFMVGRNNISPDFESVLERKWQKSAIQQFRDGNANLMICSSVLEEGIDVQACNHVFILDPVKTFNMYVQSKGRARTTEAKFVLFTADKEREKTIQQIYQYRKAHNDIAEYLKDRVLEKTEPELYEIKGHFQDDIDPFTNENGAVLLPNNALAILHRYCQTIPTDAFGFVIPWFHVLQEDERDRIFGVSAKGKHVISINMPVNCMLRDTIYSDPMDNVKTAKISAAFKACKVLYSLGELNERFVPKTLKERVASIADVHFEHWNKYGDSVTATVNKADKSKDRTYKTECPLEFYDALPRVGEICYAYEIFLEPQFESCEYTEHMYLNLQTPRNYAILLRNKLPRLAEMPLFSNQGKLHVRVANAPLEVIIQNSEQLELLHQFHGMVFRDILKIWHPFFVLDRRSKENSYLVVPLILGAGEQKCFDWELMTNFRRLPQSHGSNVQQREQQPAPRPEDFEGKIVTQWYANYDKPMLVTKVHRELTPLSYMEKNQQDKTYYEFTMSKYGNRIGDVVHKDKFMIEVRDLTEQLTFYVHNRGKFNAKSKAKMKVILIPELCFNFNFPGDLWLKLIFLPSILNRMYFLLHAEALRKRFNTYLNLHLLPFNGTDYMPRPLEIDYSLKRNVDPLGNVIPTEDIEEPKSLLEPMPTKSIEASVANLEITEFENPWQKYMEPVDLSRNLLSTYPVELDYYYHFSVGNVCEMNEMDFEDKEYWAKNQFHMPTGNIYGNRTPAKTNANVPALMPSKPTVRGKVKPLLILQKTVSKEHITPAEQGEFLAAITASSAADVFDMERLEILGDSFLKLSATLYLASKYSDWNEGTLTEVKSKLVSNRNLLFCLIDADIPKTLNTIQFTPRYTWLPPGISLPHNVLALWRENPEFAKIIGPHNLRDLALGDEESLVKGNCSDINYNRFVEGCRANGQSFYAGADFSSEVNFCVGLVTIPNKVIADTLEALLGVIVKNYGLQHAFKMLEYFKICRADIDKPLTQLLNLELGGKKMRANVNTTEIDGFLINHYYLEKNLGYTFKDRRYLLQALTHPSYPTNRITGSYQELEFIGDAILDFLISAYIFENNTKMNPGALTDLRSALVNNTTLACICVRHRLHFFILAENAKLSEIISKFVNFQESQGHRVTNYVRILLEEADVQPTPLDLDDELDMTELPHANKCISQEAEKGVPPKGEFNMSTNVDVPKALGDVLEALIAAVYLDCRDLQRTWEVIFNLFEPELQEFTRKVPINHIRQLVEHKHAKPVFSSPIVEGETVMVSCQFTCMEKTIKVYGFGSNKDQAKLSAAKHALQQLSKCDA
UniProt O61380: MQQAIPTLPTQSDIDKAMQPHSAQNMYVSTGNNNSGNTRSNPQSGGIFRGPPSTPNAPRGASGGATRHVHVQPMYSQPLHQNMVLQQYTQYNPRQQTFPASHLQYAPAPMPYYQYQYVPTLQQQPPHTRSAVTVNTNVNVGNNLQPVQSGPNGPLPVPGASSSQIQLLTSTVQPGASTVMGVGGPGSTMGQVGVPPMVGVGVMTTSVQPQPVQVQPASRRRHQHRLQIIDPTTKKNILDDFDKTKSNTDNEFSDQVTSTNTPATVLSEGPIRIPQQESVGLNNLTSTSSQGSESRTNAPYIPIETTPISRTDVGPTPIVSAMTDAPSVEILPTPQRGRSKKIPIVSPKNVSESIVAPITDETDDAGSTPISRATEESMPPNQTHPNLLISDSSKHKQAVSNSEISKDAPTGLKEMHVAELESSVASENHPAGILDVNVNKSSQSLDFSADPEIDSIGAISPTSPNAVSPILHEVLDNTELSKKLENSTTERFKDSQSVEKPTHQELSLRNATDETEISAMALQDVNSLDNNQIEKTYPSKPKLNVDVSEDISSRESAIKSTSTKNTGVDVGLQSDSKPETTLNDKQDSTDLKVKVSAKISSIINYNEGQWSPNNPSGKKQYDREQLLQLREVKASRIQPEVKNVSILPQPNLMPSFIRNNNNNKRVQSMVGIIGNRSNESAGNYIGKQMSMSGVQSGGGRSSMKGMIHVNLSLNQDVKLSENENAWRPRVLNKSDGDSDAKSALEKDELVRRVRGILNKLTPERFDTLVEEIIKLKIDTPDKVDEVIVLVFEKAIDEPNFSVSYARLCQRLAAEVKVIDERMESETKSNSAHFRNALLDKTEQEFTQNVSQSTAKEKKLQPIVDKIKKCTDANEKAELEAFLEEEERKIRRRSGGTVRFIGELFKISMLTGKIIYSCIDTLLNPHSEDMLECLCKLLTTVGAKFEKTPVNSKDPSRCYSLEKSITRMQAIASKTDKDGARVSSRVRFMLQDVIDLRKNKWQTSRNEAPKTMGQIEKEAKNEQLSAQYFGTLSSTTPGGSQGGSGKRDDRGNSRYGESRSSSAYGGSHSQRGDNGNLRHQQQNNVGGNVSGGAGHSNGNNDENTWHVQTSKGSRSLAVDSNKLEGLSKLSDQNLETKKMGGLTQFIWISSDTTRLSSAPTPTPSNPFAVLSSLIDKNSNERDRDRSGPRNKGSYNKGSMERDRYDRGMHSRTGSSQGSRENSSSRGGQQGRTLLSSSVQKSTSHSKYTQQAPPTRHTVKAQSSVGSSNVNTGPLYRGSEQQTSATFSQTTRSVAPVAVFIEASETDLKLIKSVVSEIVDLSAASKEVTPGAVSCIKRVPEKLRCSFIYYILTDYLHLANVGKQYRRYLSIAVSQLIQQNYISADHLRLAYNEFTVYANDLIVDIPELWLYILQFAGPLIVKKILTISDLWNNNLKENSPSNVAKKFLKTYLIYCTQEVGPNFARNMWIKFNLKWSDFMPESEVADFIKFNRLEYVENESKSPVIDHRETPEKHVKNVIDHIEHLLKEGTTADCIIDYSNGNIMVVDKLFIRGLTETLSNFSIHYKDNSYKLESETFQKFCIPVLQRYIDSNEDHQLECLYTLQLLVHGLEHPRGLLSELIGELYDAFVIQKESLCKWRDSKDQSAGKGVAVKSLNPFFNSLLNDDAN

The target of experiment [2] is GFP-Dicer-2 (S2 cells) (Drosophila melanogaster) (UniProt A1ZAW0). The experiment is described as above.
Experiment [3] addresses GFP::Dicer-2^WT (Drosophila melanogaster) (UniProt A1ZAW0). As to the kind of experiment: co-IP; as a4, lysate treated with RNase A (15 µg, 30 min at 4°C) before the anti-GFP IP.
For experiment [4] the target is unchanged. Briefly: co-IP; anti-GFP beads (Miltenyi or Chromotek agarose) on lysates of adult flies, non-infected or DCV-infected; western blot with antibodies to the endogenous proteins; against Ctrl-GFP or Ctrl-WT.
Experiment [5] addresses GFP::Dicer-2^Hel1 (Drosophila melanogaster) (UniProt A1ZAW0). The experiment is described as above.

No constants are given. Whether binding was seen depends on the method and setting. Binding seen in cells or lysates may run through a third protein. Some results given as binding are weak or reduced against the parent protein; the word gives no strength. For some assays here: Where a sequence is shown, tags or fusion partners need not be part of it.

“Flag-Dicer-2 (from UniProt A1ZAW0 1-1722) (enzyme)”: the binding result in experiment [1] is “binds”.

For the molecule HA-eIF4G1 (from UniProt O61380 1-1666), the binding result in experiment [2] is “binds”.

B1: eIF4E1 (protein, UniProt P48598 1-259)
chain: MQSDFHRMKNFANPKSMFKTSAPSTEQGRPEPPTSAAAPAEAKDVKPKEDPQETGEPAGNTATTTAPAGDDAVRTEHLYKHPLMNVWTLWYLENDRSKSWEDMQNEITSFDTVEDFWSLYNHIKPPSEIKLGSDYSLFKKNIRPMWEDAANKQGGRWVITLNKSSKTDLDNLWLDVLLCLIGEAFDHSDQICGAVINIRGKSNKISIWTADGNNEEAALEIGHKLRDALRLGRNNSLQYQLHKDTMVKQGSNVKSIYTL
As to B1, the binding result in experiment [3], in experiment [4] and in experiment [5] was “binds” throughout.

B2: Me31B (protein, UniProt P23128 1-459)
chain: T1 sequence
Turning to B2, the binding result in experiment [3], in experiment [4] and in experiment [5] was “binds” throughout.

Values taken from publication PMC12058146.
